Results on 2 sequences are retold here after patent publication US20080193947A1 (priority 2004, published 2008).

Where a sequence shows no end group, the ends are not given.

This data set in a line: peptide synthesis. The settings on record: whole synthesis.

Turning to “EDMQRQMAGLMEKMQAAV (N- and C-terminal blocking)”, the “purity (crude or final not stated)” value is reported as 95%.
Take GAIIGLMVGGVVIA (listed as Homo sapiens): the “purity (crude or final not stated)” value amounted to 80%.
